Binding signal data for 42 sequences are collected here from paper PMC7819943, “Rice protein-binding microarrays: a tool to detect cis-acting elements near promoter regions in rice”.

Protein sequences, listed by entry. Tags and fused reporters are not part of them.
UniProt Q0JBA9, entry or part of it: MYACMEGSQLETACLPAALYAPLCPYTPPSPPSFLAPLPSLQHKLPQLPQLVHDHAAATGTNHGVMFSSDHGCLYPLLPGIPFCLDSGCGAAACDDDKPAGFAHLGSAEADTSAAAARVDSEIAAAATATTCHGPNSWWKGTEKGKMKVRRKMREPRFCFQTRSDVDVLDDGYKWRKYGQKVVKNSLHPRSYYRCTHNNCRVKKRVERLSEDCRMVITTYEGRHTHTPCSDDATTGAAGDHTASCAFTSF

The other results are listed elsewhere or left out.

In this assay the target is OsWRKY34 (Oryza sativa, UniProt Q0JBA9 1-250). The assay is described as follows: protein-binding microarray (RPBM); PBS, 2% BSA, 51.3 ng/ul salmon testes DNA, 50 uM zinc acetate, 200 nM TF, 25 C, 1 h; high values mean tight binding. As to conditions: protein: recombinant; tags: N-terminal polyhistidine and DsRed monomer fusion (pET32a); label: CyDye5-dUTP incorporated in the synthesized complementary strand; 3' TTTTT single-stranded linker to array surface; dsDNA, one strand shown. An outline of the steps:
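For the binding signal, per-feature fluorescence intensity was read in arbitrary units on an Axon 4000B scanner. Before scanning, a 2% BSA-blocked custom Agilent array made double-stranded with Cy5-dUTP was washed after 1 h at 25 °C with 200 nM protein and 50 µM zinc acetate. The proteins were Ni–NTA-purified transcription factors with N-terminal polyhistidine and DsRed fusions, expressed in E. coli BL21-CodonPlus.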
Take “ATTTTGTAGGAGGTTTATAAGAAGGTCAACATCTTTTTTTCGGAGTCACCTAGTGCAG”: the binding signal is 9630 fluorescence intensity (a.u.).

“GCCGTCCCTGCAGCCGCGCGTACGTACGCACGCCGCGATCCGGAGTCACCTAGTGCAG”: the binding signal is 8210 fluorescence intensity (a.u.).

Regarding “CCCACCCACCCACCCACCACCACGCCACGCCACCACCTCGCGGAGTCACCTAGTGCAG”, the binding signal was 8190 fluorescence intensity (a.u.).

In the case of “TTTCTCAAATTCAACCCTTTCTCAGTTTCTGTTTTTTTTTCGGAGTCACCTAGTGCAG”, the binding signal was 8650 fluorescence intensity (a.u.).

Take “AAGTTTTTGGGTAGTGCTTTTGCGCGCTTTCTCTTGGCTGCGGAGTCACCTAGTGCAG”: the binding signal was 8150 fluorescence intensity (a.u.).

For the sequence “ATAGTTTGCATTTTTGTTTTCTTCCTAGCTTAACTAAACTCGGAGTCACCTAGTGCAG”, the binding signal is 9860 fluorescence intensity (a.u.).

On to “CTTTTTTGTTGTTCTTTGTGTTGATTTCTTCCTCTGCGAGCGGAGTCACCTAGTGCAG”, for which the binding signal was 10600 fluorescence intensity (a.u.).

For the sequence “AATCGTCACACATATGCGCTCGGATTTTTTTCTTTCTAACCGGAGTCACCTAGTGCAG”, the binding signal is 10200 fluorescence intensity (a.u.).

As for “TCTATCTTTGACTTGGAAGACAGCTCACTAATACTACCTTCGGAGTCACCTAGTGCAG”, the binding signal is 9400 fluorescence intensity (a.u.).

As to “TTCCCAATATTAATTTGTCCGTTATGATTTCTGTTGCGTTCGGAGTCACCTAGTGCAG”, the binding signal is 11600 fluorescence intensity (a.u.).

Consider “GTCGGGTTGCCACACCTCTTCGACTTGCACAACATCGATCCGGAGTCACCTAGTGCAG”, for which the binding signal was 9350 fluorescence intensity (a.u.).

As for “AAGAACCCACCACCTCCGCCGCCTCCGCTTCCGCCGCCGGCGGAGTCACCTAGTGCAG”, the binding signal is 11500 fluorescence intensity (a.u.).

As for “TTATCATTTTTTCTTATTTACTCTCTTCGTTCTATATTAACGGAGTCACCTAGTGCAG”, the binding signal was 11000 fluorescence intensity (a.u.).

As for “TACCTGGGCTGTTCTTGTTGCTTAGTTGGGTTAGATTATTCGGAGTCACCTAGTGCAG”, the binding signal is 10000 fluorescence intensity (a.u.).

On to “TTTTCTCCTTTCGCGTTGCGTCCGCGATCCGATCGATCGACGGAGTCACCTAGTGCAG”, for which the binding signal was 9560 fluorescence intensity (a.u.).

With “TCAAGATGATATGGGTCGCCCCTTCTTTTTGCGCCAAAGACGGAGTCACCTAGTGCAG”, the binding signal was 9020 fluorescence intensity (a.u.).

As for “AGTTTTTGCTTGTAACGTTTCACCACTCGTCTTATTCAAACGGAGTCACCTAGTGCAG”, the binding signal was 8340 fluorescence intensity (a.u.).

With “CTTCGATTCTGTGAGTTTATATTTGATTTTCTGTCTTTTCCGGAGTCACCTAGTGCAG”, the binding signal was 8610 fluorescence intensity (a.u.).

As to “GATACTGTAATTACCACTGTGTATTTTGTTTTGTTTGTGTCGGAGTCACCTAGTGCAG”, the binding signal is 14800 fluorescence intensity (a.u.).

In the case of “ACACTCACCGACGCGTGGGCCCCAATCACTCCCGCACATCCGGAGTCACCTAGTGCAG”, the binding signal was 10100 fluorescence intensity (a.u.).

As to “TTATTAAGTTTGTTTCGTGTAAATTTTTTTTTCTTAGAATCGGAGTCACCTAGTGCAG”, the binding signal was 8240 fluorescence intensity (a.u.).

With “ATTTTTTCTTCATTTTTCATTCCGTTGAGATCAGCACTTTCGGAGTCACCTAGTGCAG”, the binding signal is 8300 fluorescence intensity (a.u.).

In the case of “CCCCACTTGCTCCACCATAGCCTTTTAGCCTCTCTTCTTTCGGAGTCACCTAGTGCAG”, the binding signal is 9790 fluorescence intensity (a.u.).

Take “CGCCCAAGCTAGCTAGTGGCCATTATCCCATGGATATTTCCGGAGTCACCTAGTGCAG”: the binding signal was 8280 fluorescence intensity (a.u.).

Turning to “ATAAAAACCTCGCGATTTCTCTCTCTCTCTCTCCCGTCTCCGGAGTCACCTAGTGCAG”, the binding signal is 8130 fluorescence intensity (a.u.).

In the case of “TCTTCCCATCCGTCCACTTCCACAATGCGGCGCCTCCTCGCGGAGTCACCTAGTGCAG”, the binding signal is 12000 fluorescence intensity (a.u.).

Turning to “GGGCCGAACATAGGGTGGGTGCAGATGATGTCGAACTCCTCGGAGTCACCTAGTGCAG”, the binding signal was 9560 fluorescence intensity (a.u.).

Take “GTCTTATCCGATTTTAGGTTATTTTTTTCTTTTAAATTTGCGGAGTCACCTAGTGCAG”: the binding signal is 8370 fluorescence intensity (a.u.).

Regarding “AAACATACTGCCTCACCAGTCACAAATTGTAAACATACTACGGAGTCACCTAGTGCAG”, the binding signal is 8160 fluorescence intensity (a.u.).

As for “TTTTAGGGTGGGCTAAACAGGCCTATATTGATGTGTAATTCGGAGTCACCTAGTGCAG”, the binding signal is 11000 fluorescence intensity (a.u.).

“AATATGGACTCTATACTCTATTTCTAATATTCCTTATTTTCGGAGTCACCTAGTGCAG”: the binding signal was 8840 fluorescence intensity (a.u.).

For the sequence “CGCGCCGCCGTCCCCGCCTCCGCCTCACACCGCGGCCCCTCGGAGTCACCTAGTGCAG”, the binding signal was 9500 ± 862 fluorescence intensity (a.u.).

“TTCACCTACGCTCATGGAGACTCTCACTATCTTTATAAGACGGAGTCACCTAGTGCAG”: the binding signal was 8960 fluorescence intensity (a.u.).

Regarding “TTGATCAGGTCGAGGAGGAATATCCAGCGTTAACTTATTACGGAGTCACCTAGTGCAG”, the binding signal is 9060 fluorescence intensity (a.u.).

In the case of “CATTCTAGCATTTTTCATATTCATATTGGTATTAATGAATCGGAGTCACCTAGTGCAG”, the binding signal was 10800 fluorescence intensity (a.u.).

For the sequence “TTTCTCCGGTGTTATGCGTTGCGTGGTGCATTTCTTTGTTCGGAGTCACCTAGTGCAG”, the binding signal is 8510 fluorescence intensity (a.u.).

“CTTACCAATATTTGACAATTTCAATAGTGCTTAGTGTTTACGGAGTCACCTAGTGCAG”: the binding signal was 8560 fluorescence intensity (a.u.).

“ACCTATATGATTCATCCTCACTTAGTATTATTTCTCTCTTCGGAGTCACCTAGTGCAG”: the binding signal is 9030 fluorescence intensity (a.u.).

Regarding “CTCTCTCCCTTGATCTCTTCGCTGCGAAGCCATCTTCTTCCGGAGTCACCTAGTGCAG”, the binding signal is 9920 fluorescence intensity (a.u.).

For the sequence “CAACATCCACCTGTTTCTATCCCAACCATTCTTACCAACACGGAGTCACCTAGTGCAG”, the binding signal was 10500 fluorescence intensity (a.u.).

As to “CATGCGCGCGCATTGCGCCTTCTGCCTTTCAGGCTTTCACCGGAGTCACCTAGTGCAG”, the binding signal was 9210 fluorescence intensity (a.u.).

On to “GCGGCCACCCGCCTCGCCATCGCCAACCTCTCCACGCGTCCGGAGTCACCTAGTGCAG”, for which the binding signal is 8600 fluorescence intensity (a.u.).
